Measurements as given in patent US20230039279A1, “INFLAMMATION-RESPONSIVE ANTI-INFLAMMATORY HYDROGELS” (Nanyang Technological University, priority 2019, published 2023).
Some entries share one result that the patent states for a list of compounds.

Assay: Tube-inversion gelation screening of peptide crosslinkers with PEG-VS and ibu-PLGA particles
Type: physicochemical
Settings: in both buffers investigated (TEOA, PBS/NaOH), peptide crosslinker, ibu-PLGA particles
Procedure: Peptide-crosslinked hydrogels were prepared by reacting 4-arm poly(ethylene glycol)-vinyl sulfone (PEG-VS) (20 kDa, Sigma Aldrich, St. Louis, Mo., USA) with bis-cysteine peptides (Genscript, Hong Kong) in stoichiometric ratio. Each precursor was dissolved in either triethanolamine (TEOA) buffer (0.3M) or PBS/NaOH buffer (pH=10). Typically, to prepare 117 μL of peptide-crosslinked hydrogels with 4.2% (w/v) PEG content, 5 mg of PEG-VS was dissolved in 100 μL of a buffer solution in a glass vial and mixed with a stoichiometric amount of a peptide crosslinker dissolved in 17 μL of the same buffer solution. Hydrogels with 4.2% (w/v) PEG content were evaluated in the preliminary screening of peptide crosslinkers. Hydrogels with 1.7% (w/v) PEG content were used in all subsequent in vitro and in vivo experiments. To form hybrid hydrogels consisting of PLGA particles (with or without ibuprofen) embedded in peptide-crosslinked hydrogels, the aforementioned precursors were dissolved separately in a buffer solution containing suspended PLGA particles at a concentration of 5% (w/v).
To identify an optimal peptide crosslinker for GEL-iP, we performed qualitative screening of 8 peptide sequences (Table 3 and FIG. 14) by evaluating the influence of substrate and spacer choices on the gelation and cleavability of hybrid hydrogels. In addition, buffers in which gelation occurred was also investigated because their environmental pH might affect the deprotonation of thiols and subsequently influence the crosslinking process. For each combination of substrate, spacer and buffer, the feasibility of gelation was visually inspected via a tube-inversion method. A stoichiometric amount of a peptide crosslinker was added to a glass vial containing a mixture of PEG-VS solution and suspended ibu-PLGA particles. In a parallel experiment, another vial with the same mixture composition, but without the peptide crosslinker of interest, was used as a control. The two vials were inverted at regular intervals until the mixture in one vial stopped flowing despite gravity indicating successful gelation. […]
With “GCRD-KGPRS↓LSGK-DRCG (GCRDKGPRSLSGKDRCG; GCRD-KGPRSLSGK-DRCG) [(7)]” the relative gelation rate was “fast (Gelation within 5 minutes was considered fast)”.
For “GCRR-GPQG↓IWGQ-RRCG (GCRRGPQGIWGQRRCG; GCRR-GPQGIWGQ-RRCG) [peptide (4), spacer GCRR]”, the relative gelation rate was “fast (Gelation within 5 minutes was considered fast)”.
For “GCRR-KGPRSLSGK-RRCG (GCRRKGPRSLSGKRRCG; GCRR-KGPRSLSGK-RRCG) [peptide (1)]”, the relative gelation rate was “fast (Gelation within 5 minutes was considered fast)”.
